Measured values taken from the supplement of paper PMC12764529.
± gives the half width of the 95% confidence interval. The two proteases of the assay disagree for many of these sequences.

What was measured:
[1] = folding stability dG unfold from chymotrypsin proteolysis; higher = more stable
Description: (§1)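 Folding stability of de novo designed mini-proteins (<80 aa, no Cys; designed by TrROS, TrMRF, ProteinMPNN and the joint model) was measured by cDNA display proteolysis with trypsin and chymotrypsin. Each protease was used at 11 concentrations in a threefold dilution series plus a no-protease condition. K50 was inferred by Bayesian fitting of sequencing counts, and dG unfold was derived against a sequence-predicted unfolded-state K50 (Tsuboyama et al. method). Sequences shown include variable-length N-terminal GS-type padding (SAGGSAGG...) inside a display construct carrying a PA tag. Rows were kept only if the AF2 dimer inter-PAE was >15, to exclude likely homo-oligomers.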

[2] = folding stability dG unfold (combined trypsin and chymotrypsin); higher = more stable
Description: as §1

| Sequence | folding stability dG unfold [1] [kcal/mol] | folding stability dG unfold [2] [kcal/mol] |
| --- | --- | --- |
| SAGGSAGGSAGGLRIRGDGKEIVELIEEAGLGLKDPRVEPHGDRPIVEAEIELPPDLDLSAGGSAGGSAGGS [r10_885_TrMRF] | 1.67 ± 0.022 | 1.2 ± 0.066 |
| SAGSVTVEVFGPGRLLATYTLDDTTTTVAVPPEPVRVRIRSPGDDAEATADADPATGVVTVTVPADLGLSAG [r5_469_JUSTAS] | 0.679 ± 0.05 | 0.165 ± 0.064 |
| SAGGSAMILDIPDDETLTIELPGDATARVEVRSGPDGGRLVRVVVEARAGAGPVVAPAEILLPPEGSAGGSA [r15_280_TrMRF] | 1.12 ± 0.036 | 0.701 ± 0.08 |
| DFLELPGGWKVTEILEKKRLSDGTVEIKAVVKDPNNPVETEIDVKIPIPEVPEVPVEVRLIPGTGELIGILS [r1_411_JUSTAS] | – | < -1 |
| SVPADAPPGYVAEKVEIVIKVPKSLLDKNGKIKPEVKKEAEEEAEKLKEEIKKKYPDVNVKDVGITIELESA [r9_943_JUSTAS] | 1.12 ± 0.12 | 0.358 ± 0.69 |
| SAGGSAGGSAGGPPEILDVLRAADVPVVRVEVFEVPLPGTTAPALLVLAGNPDGRYLVLGSAGGSAGGSAGG [r7_337_TrMRF] | 1.04 ± 0.18 | 0.424 ± 0.22 |
| SAGGGMGRIPLYGEERVEEIAAEPDVVSVEEDPETGRTYVYFERPDGYYSFTRDNETGEITEKTPLPSAGGS [r8_251_JUSTAS] | -0.523 ± 0.5 | – |
| SAGGSAGGSAGGALTDAVPLGESEAPLPLPDGSQLRVRRVTVRDPVTGETATFERVELLPSAGGSAGGSAGG [r7_546_TrMRF] | 1.11 ± 0.05 | 0.476 ± 0.043 |
| SAGGMVETTETVVEPGRIRVERRVTLPDGTEVEEVEEVPPAAGGVWEVRSRVRRGEGEEEVARREVAPSAGG [r13_728_JUSTAS] | – | < -1 |
| SGAVAEELKAAGYPVLSVEFDPETGTLTVEVAVEDPAQPVARTLTITIPLPPDATPEEATAAVRAAVAAASA [r9_184_JUSTAS] | 2.924 ± 0.01 | 2.61 ± 0.042 |
| SAKYKIIEAKPGKNVVTITVEYTLPNGEKLTKPIPINAINPVIVEVSEDSITIYDPNNGKLITFPAEKLSAG [r14_947_TrMRF] | 2.87 ± 0.037 | 2.49 ± 0.12 |
| SAGGSAEVRVVAEPLPDDYLLVLVEFDSPEVLPEALEAIPGVVEVRAYRFLEEGRPRYRVLALVPASAGGSA [r15_344_TrMRF] | 2.02 ± 0.059 | – |
| SAGGSAGGSAGGPASPTVTTVPLPDGSTATRTTTDELTTVTVPNGPTLTYNPSPPVLAGSAGGSAGGSAGGS [r10_1176_JUSTAS] | 1.15 ± 0.018 | 0.584 ± 0.05 |
| SAGGSAGGSATLAVRDPSTDAVLVYDPVTGALLLRFPDGLVAYDPRTGERRLFPAGTTITLPASAGGSAGGS [r12_584_TrMRF] | 1.5 ± 0.14 | 0.871 ± 0.081 |
| SAGNMRIEIEGEPYPVIPMPASDLRDLLKDPNIKAIKVRNPNEPAIYPLPDGKIQGPLPPNMSIRIKKSAGG [r19_152_TrROS] | 1.16 ± 0.043 | 0.72 ± 0.1 |
| MKTVVIKTTITLTSPDGTRSTTTLETEIPPSELSPEVIEEIKKKFEEIAQKLEEEGYKVEVTVEIVPEGAES [r1_221_JUSTAS] | 1.91 ± 0.21 | – |
| SAGMSPEERERLERLRRELERLEREEELLRERAEELGLSEEEAARREREERLRRLREELERLERRPEESAGG [r19_305_TrROS_Hall] | 3.33 ± 0.047 | 3.02 ± 0.11 |
| SAGGSAGGSANIDIKVEENPGNGYRKVEVTMTVDDLRELFGNEPIPPGEERQIKMTIYLPIPSAGGSAGGSA [r18_327_TrROS] | 1.37 ± 0.095 | – |
| SAGGSAGGSAGGMIVPPDLSVTVTFPDGSVRTLTLNSDEDLVETLEKPVPPDVDVVAVAASAGGSAGGSAGG [r7_223_JUSTAS] | 1.02 ± 0.12 | 0.183 ± 0.17 |
| SAGMDPSDPNSITTLTTEVEPLPDGSTRVTTYTKLPDGTIVKNVTTLDPAGNVLTTTTTPIPPEALNASAGG [r19_285_JUSTAS] | 3.85 ± 0.06 | – |
| SAGGSAGGSAGAPKSVSVPLLRPDGKPVLVTQTDDRVFVYDLGPDRWATFPAKDVPPGVASAGGSAGGSAGG [r11_155_TrMRF] | 1.23 ± 0.18 | 0.335 ± 0.13 |
| SAGGSAGGSAGGTVRPGQTIPDVPVKIRNPDNNKEHTRTFPPGENIADLANKNGFEIEPSAGGSAGGSAGGS [r10_202_TrROS] | 1.48 ± 0.13 | 0.723 ± 0.16 |
| SAPDKIEIPITFPNGYTFWIKIDPDRIRVTWMDNGLRREKEITPDGMIKLDFRMPNGRPIMSPTIPLEDSAG [r14_213_TrROS] | 1.93 ± 0.12 | – |
| MKIEIEKPIKTEEEAKEFIKELLKELNIPEGTKVEITMSTEPETGDLIATVTVTLPDGTVIEITVKFPREES [r1_84_JUSTAS] | 2.35 ± 0.1 | 3.03 ± 0.23 |
| SAGGSAGGSAGIKKQRNPDGQERETIEIRTKNQPIPITFPPDDNADDLANNFGLPADDIRSAGGSAGGSAGG [r11_1039_TrROS] | 0.682 ± 0.039 | 0.28 ± 0.079 |
| SAGGSAGGSAGGAMTLEELIAAVPPTRPDVTVEAEFPEKPVKVTITRPPDGTVEVEVKKVSAGGSAGGSAGG [r7_984_JUSTAS] | 1.75 ± 0.1 | 1.25 ± 0.17 |

| Sequence | folding stability dG unfold [1] [kcal/mol] | folding stability dG unfold [2] [kcal/mol] |
| --- | --- | --- |
| SAGGSAGGSMKPSLRVLEVPVPVPPGESPEAVAARLAAEPRVRVLEVLEVDPATGRVTLLVVESAGGSAGGS [r12_712_JUSTAS] | 1.1 ± 0.044 | 0.629 ± 0.044 |
| SAGGSAGGSAAPIPPDQSATSLTLLPDGTVRKTTTTYPPPEFVTTTTTTIPISPEEGAAAGSAGGSAGGSAG [r3_437_JUSTAS] | – | < -1 |
| SAGGSAGGSAGGSRPYRIGNGRLLVVLPGDGVLAYDPATGTWKVYPLSNPKPILLPKDALSAGGSAGGSAGG [r7_299_TrMRF] | 1.39 ± 0.1 | 0.709 ± 0.077 |
| SAGGMIKIKNKKTGKEIEITEINKENPVVKIKVKNKNGETKEIEVPKSLDEIVEELKKKGVEVEIEPSAGGS [r16_748_TrROS_Hall] | 1.5 ± 0.21 | 0.947 ± 0.44 |
| SAGGSAGGSAGGMYSVTLTPVSSPDGELRLRAVYPELGLVRDFDPATGRPVRVVPAALLSAGGSAGGSAGGS [r10_589_JUSTAS] | 0.411 ± 0.22 | -0.422 ± 0.26 |
| SMITVTVPVSSSGGSVSVSEVRAAIRAALPADWAVGASDEELRALIEAAAAANGGPIAPAAHPLEVLVTGSA [r9_197_JUSTAS] | 1.507 ± 0.013 | 0.924 ± 0.042 |
| STLEQILDAIESMPPGWVFRIKIHHPNGEPHEHRFNMTYDDIKAQLENMIDHHPGQPIKIKIEFMPPEDFSA [r9_37_TrROS] | 3.72 ± 0.077 | 3.38 ± 0.064 |
| SAGGSAGGSAGLLPYPVTDVSVEELPDGLVRVTITLPNGEPLPLVVSPDDPVVQDLLDALSAGGSAGGSAGG [r11_122_TrMRF] | 1.85 ± 0.11 | 1.37 ± 0.13 |
| SSPVVVSESTDPNSSTKTITVTLPPNARVTLTLPGEPVETRPQPDATATLTTGPDALDITIEPLPPGVPLSA [r9_221_JUSTAS] | 0.474 ± 0.1 | -0.714 ± 0.24 |
| SAGGSAGGSAGGSIWIPAKDIEEFAEELSDDHGWTVEIEPHPGPPWIPIEIEPPPPGDMSAGGSAGGSAGGS [r4_419_TrROS] | 1.55 ± 0.065 | 1.28 ± 0.17 |
| SAGGSAVRIKVWPPNGKEQWIPIPSSMTPSTVQEMAENLADDWQEQNGNKNVKVEVDPDNGWIRIRSAGGSA [r15_33_TrROS] | 0.197 ± 0.084 | -0.0158 ± 0.066 |
| SAGGSEPPKIKKIKDINVKHERHNDRPYWEVKIRIKLKNGNTAEIDIEMPGMPPEEAREQIKDILKSAGGSA [r2_26_TrROS] | 0.872 ± 0.089 | – |
| SAGGSAGGSWITPEWIEEIARYLARELGIDDVKIEVERRPDGYVTVEIRNPANGRKVEITVPWSAGGSAGGS [r12_1000_TrROS] | 3.06 ± 0.1 | – |
| SAGGSAGGSDLPIKIKMEPIPPGMPPGQVYRMEIEIPNGWVIRYSFYFTGGKLEFEPMEIKPVSAGGSAGGS [r12_1049_TrROS] | 3.58 ± 0.08 | – |
| SAGGEMEKIAEFEFTLENGTKIRIEVYKNKETEEYVVKMEVINKETGETKTIEITVKPGEKIEIKFPSAGGS [r8_249_TrROS_Hall] | – | > 6 |
| SAGGSAGGSPPPITIFTAYKDPEDGPYWMKRRKINPDNGNIEEEWYPADDLADHGLPPGDIFISAGGSAGGS [r12_123_TrROS] | 0.413 ± 0.33 | – |
| SAGGSAGGSSKNGKPKPTIKVEMPDKPGPHEIPIPESDPDEAKTLAEELAQKWPGVPVRIEPTSAGGSAGGS [r12_601_TrROS] | 0.989 ± 0.057 | – |
| SAGGSAGGSKILEIERDPEKGLVKITVPPDVPPNPHPRLLKVEPKNNKYIVTFPMSPSDEIELSAGGSAGGS [r20_37_JUSTAS] | – | < -1 |
| SAGGSAGGSAMSVSVSSPENAEKLAKEIKEKNPNEIPKITKGSGSNSYTLTLPSGKNIKVSSSAGGSAGGSA [r18_154_JUSTAS] | – | < -1 |
| SAGGSAGGSAGGPEVTLRLRLEVEVRVVVLKDGKLEEKTFRFELEVEVRFEPGMSLEELSAGGSAGGSAGGS [r10_633_TrROS_Hall] | 4.09 ± 0.086 | – |
| SAGGSSESKTVTAPDGRVLEFTKSLDPTSSNSRYTLTVYAPESGEPLREAEFSSEEEAEKYIAEGLGSAGGS [r8_450_JUSTAS] | 0.487 ± 0.072 | – |
| SAPPPVQTLTLTVYDPETGRLVKIEVTRRPDGTLEVRVEVVDLETNEVTTETITLPGLTLDELLKLLEEASA [r9_618_TrROS_Hall] | 4.02 ± 0.16 | – |
| SAGGSAGGSAGGMVITVPKENLKELIDALRKEGKARIVSVEEKDGLVTITVELEDEELESAGGSAGGSAGGS [r10_695_TrROS_Hall] | 2.28 ± 0.075 | – |
| SAGGSAGGSADAVVVEVTLPGGGKARAVFFPDGSVVIVVDFPDGRRAVIFLENNEIVVLPVDSAGGSAGGSA [r18_285_TrMRF] | 3.15 ± 0.19 | – |
| SAGGSAGGSAGGMITVKDPATGKWREVTPEELEEVLAANPGPITVEREGGRRTVPAALLSAGGSAGGSAGGS [r10_839_JUSTAS] | – | < -1 |

At a glance, part of the list above:

| Sequence | folding stability dG unfold [1] [kcal/mol] | folding stability dG unfold [2] [kcal/mol] |
| --- | --- | --- |
| SAGGSAGGSAGGPEVTLRLRLEVEVRVVVLKDGKLEEKTFRFELEVEVRFEPGMSLEELSAGGSAGGSAGGS [r10_633_TrROS_Hall] | 4.09 ± 0.086 | – |
| SAGGSSESKTVTAPDGRVLEFTKSLDPTSSNSRYTLTVYAPESGEPLREAEFSSEEEAEKYIAEGLGSAGGS [r8_450_JUSTAS] | 0.487 ± 0.072 | – |
